Assay results as given in paper PMC2100146, “The Inhibition of Polo Kinase by Matrimony Maintains G2 Arrest in the Meiotic Cell Cycle” (PLoS Biology, 2007).
No constants are given. Whether binding was seen depends on the method and setting. In cells and extracts the contact can be indirect. Some results given as binding are weak or reduced against the parent protein; the word gives no strength. For some assays here: Where a sequence is shown, tags or fusion partners need not be part of it.

Legend:
[1] = molecular target: T1, Polo kinase (Polo) (Drosophila melanogaster (endogenous in ovaries)) (UniProt P52304); assay: co-IP; antibody to GFP (ovary extracts of GFP-polo flies) or monoclonal antibody to Polo (wild-type ovary extracts) on protein A or G agarose beads, 1 h at 4 °C; blot for Mtrm
T1 sequence: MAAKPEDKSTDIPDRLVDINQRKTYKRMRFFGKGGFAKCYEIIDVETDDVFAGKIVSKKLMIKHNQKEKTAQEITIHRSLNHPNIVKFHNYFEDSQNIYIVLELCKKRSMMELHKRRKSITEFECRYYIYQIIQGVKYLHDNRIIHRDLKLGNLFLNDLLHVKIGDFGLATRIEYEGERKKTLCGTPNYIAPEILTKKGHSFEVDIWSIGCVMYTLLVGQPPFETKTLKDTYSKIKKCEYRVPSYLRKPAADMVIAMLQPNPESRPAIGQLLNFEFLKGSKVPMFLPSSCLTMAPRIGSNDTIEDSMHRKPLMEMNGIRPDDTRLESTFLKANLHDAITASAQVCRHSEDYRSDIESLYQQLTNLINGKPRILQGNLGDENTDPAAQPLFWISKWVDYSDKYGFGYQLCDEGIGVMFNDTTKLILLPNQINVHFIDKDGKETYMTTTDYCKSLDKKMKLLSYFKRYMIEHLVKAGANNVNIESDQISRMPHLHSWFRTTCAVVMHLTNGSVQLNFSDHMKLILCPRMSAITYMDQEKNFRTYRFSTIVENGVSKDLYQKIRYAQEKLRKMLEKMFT

[2] = molecular target: T2, Green Fluorescent Protein (GFP)-Polo (Drosophila melanogaster) (UniProt P52304); assay: as above
T2 sequence: T1 sequence

B1: Matrimony (Mtrm) protein (protein, UniProt Q23973 1-217)
chain: MENSRTPTNKTKITLNRTPTLKERRWNTLKVNTSNVRCSTPIFGNFRSPNLSPIENMGTKGKSPVSPMRFATFKKVPTKVHPKQQQQQQHQHCHRTQLKPPPFVLPKPQEEIIEPEREIKSCSSPDTCSDDSNMETSLALESRRRSIKASNHSYVVNHAANVEQILMHMGLENYVTNFEEAHIDLVELASLERADLVKIGLNTDEDCNRIMDVLHTL
- binding [1]: binds
- binding [2]: binds
